Laboratory results from doi:10.1101/2023.07.11.548601.
These are yes or no findings as the source states them, for the method shown. In cells and extracts the contact can be indirect. These calls come from enrichment with a bait or labelling near it, and not all partners need be listed. Sequences can lack the tags named with a protein.

Target: T1, biotinylated Avi-Ozz (recombinant Ozz fused to an Avi-tag) (UniProt Q9D0S4)
T1 sequence (chain, biotin on the Avi-tag (biotinylated by the coexpressed bacterial ligase BirA)): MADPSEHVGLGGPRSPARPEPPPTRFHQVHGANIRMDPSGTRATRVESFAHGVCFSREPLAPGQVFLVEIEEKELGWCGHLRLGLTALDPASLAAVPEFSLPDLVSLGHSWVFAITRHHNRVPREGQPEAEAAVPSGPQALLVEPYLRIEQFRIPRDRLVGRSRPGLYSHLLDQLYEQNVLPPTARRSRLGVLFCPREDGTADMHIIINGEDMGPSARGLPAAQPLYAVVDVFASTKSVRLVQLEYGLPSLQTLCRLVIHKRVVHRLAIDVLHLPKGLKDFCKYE
Assay: affinity purification with mass spectrometry

B1: Slc25A4 (protein, UniProt P48962 1-298)
chain: MGDQALSFLKDFLAGGIAAAVSKTAVAPIERVKLLLQVQHASKQISAEKQYKGIIDCVVRIPKEQGFLSFWRGNLANVIRYFPTQALNFAFKDKYKQIFLGGVDRHKQFWRYFAGNLASGGAAGATSLCFVYPLDFARTRLAADVGKGSSQREFNGLGDCLTKIFKSDGLKGLYQGFSVSVQGIIIYRAAYFGVYDTAKGMLPDPKNVHIIVSWMIAQSVTAVAGLVSYPFDTVRRRMMMQSGRKGADIMYTGTLDCWRKIAKDEGANAFFKGAWSNVLRGMGGAFVLVLYDEIKKYV
For B1, the binding was “binds”.
